Drawing on article PMC6966473, this text covers binding for two substances.

One assay concerns the target T1, RASSF10-EYFP (human) (UniProt A6NK89).
T1 sequence: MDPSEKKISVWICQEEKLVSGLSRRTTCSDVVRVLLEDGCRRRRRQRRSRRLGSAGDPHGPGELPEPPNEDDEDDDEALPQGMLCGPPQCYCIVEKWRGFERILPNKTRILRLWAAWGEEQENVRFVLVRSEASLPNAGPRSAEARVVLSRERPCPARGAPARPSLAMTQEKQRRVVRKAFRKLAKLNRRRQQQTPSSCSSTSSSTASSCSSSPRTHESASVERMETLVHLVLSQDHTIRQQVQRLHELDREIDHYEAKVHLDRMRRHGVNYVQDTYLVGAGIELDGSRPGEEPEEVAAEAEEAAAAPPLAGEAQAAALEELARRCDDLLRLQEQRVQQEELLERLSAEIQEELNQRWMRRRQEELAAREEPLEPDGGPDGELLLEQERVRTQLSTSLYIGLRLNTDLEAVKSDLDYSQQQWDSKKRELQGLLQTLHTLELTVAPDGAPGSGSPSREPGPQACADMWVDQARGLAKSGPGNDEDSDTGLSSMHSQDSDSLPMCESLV
Put plainly: co-IP; wt-RASSF10 held on GFP-Trap, ASPP1/2 co-precipitated, RASSF10D237-362 as competitor (Figure S3c).

For a further assay, the target named is T2, RASSF10D1-133 (human) (UniProt A6NK89).
T2 sequence: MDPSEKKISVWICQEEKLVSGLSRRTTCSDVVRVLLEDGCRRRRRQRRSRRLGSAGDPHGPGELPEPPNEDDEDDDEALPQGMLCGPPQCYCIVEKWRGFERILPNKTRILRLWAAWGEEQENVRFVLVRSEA
Put plainly: co-IP; co-precipitation of ASPP1/2 with RASSF10 or RASSF10 domain mutants (Figure S3a); tags and cells not given.

The target in assay [1] is T3, RASSF10, overexpressed (tag not stated) (human) (UniProt A6NK89).
T3 sequence: T1 sequence
Briefly: pull-down; RASSF10 overexpressed in HEK cells and pulled down (GFP-Trap or Glutathione-Sepharose; which in which panel not told); overexpressed (Figure 4b) or endogenous (Figure 4c) ASPP1/2 detected by Western blot. On the technique in general: In western blotting, separated proteins are transferred to a membrane and probed.

These are yes or no findings as the source states them, for the method shown. In cells and extracts the contact can be indirect. Binding calls can cover weak binding; strength is not graded here. For part of these data: Tags and fused reporters may be left off the sequences shown.

Consider ASPP1 (experiments of Figure S3), for which the binding entry was “binds” with RASSF10-EYFP (human) and “binds weakly” in the assay with RASSF10D1-133 (human).

Take ASPP1, overexpressed (tag not stated): in assay [1], the binding entry was “binds”.
